Experimental data reported in PMC7864068, “α2-Macroglobulin-like protein 1 can conjugate and inhibit proteases through their hydroxyl groups, because of an enhanced reactivity of its thiol ester” (The Journal of Biological Chemistry, 2021).
Where a chain is given by its changes, count along the chain named. In names and notes the source's numbering stands. These are yes or no findings as the source states them, for the method shown. Some entries that bind do so weakly or less than the wild type.

Chains of the proteins cited; added tags and fusions are not shown. Residues count along the entry.
UniProt P0C1U8, residues 69-336: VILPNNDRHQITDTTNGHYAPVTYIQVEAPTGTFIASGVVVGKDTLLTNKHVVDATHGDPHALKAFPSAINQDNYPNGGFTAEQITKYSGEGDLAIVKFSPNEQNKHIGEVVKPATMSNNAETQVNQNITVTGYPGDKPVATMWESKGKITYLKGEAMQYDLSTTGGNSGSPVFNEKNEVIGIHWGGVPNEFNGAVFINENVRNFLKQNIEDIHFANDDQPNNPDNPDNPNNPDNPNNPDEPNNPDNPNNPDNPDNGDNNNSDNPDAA

T1: Thermolysin from Geobacillus stearothermophilus, unmodified (Geobacillus stearothermophilus) (UniProt P00800)
T1 sequence: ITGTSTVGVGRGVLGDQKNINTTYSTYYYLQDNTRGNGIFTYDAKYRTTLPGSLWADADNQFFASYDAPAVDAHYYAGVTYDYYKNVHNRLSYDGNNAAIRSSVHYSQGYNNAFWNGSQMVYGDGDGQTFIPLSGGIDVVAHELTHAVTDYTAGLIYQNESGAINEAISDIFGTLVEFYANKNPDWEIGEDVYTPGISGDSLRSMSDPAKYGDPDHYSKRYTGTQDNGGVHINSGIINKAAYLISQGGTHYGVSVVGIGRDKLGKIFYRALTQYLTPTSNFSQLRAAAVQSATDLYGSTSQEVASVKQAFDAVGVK

T2: Cathepsin G (CatG) (UniProt P08311)
T2 sequence: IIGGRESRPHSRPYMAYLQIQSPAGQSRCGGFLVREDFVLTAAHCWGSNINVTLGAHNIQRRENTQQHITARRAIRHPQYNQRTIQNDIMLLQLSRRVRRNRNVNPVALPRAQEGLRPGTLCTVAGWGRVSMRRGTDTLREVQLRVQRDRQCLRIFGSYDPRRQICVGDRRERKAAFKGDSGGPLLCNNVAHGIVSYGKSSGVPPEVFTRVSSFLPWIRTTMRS

T3: Cy5-labeled thermolysin (Geobacillus stearothermophilus) (UniProt P00800)
T3 sequence (chain, Cy5 (mono NHS ester), about 0.6,1 molar ratio of Cy5 to thermolysin): T1 sequence

B1: Human α2-macroglobulin-like protein 1 (A2ML1), recombinant wild type (natural protein, UniProt A8K2U0-1 18-1454, looked up)
chain: EELPNYLVTLPARLNFPSVQKVCLDLSPGYSDVKFTVTLETKDKTQKLLEYSGLKKRHLHCISFLVPPPAGGTEEVATIRVSGVGNNISFEEKKKVLIQRQGNGTFVQTDKPLYTPGQQVYFRIVTMDSNFVPVNDKYSMVELQDPNSNRIAQWLEVVPEQGIVDLSFQLAPEAMLGTYTVAVAEGKTFGTFSVEEYVLPKFKVEVVEPKELSTVQESFLVKICCRYTYGKPMLGAVQVSVCQKANTYWYREVEREQLPDKCRNLSGQTDKTGCFSAPVDMATFDLIGYAYSHQINIVATVVEEGTGVEANATQNIYISPQMGSMTFEDTSNFYHPNFPFSGKIRVRGHDDSFLKNHLVFLVIYGTNGTFNQTLVTDNNGLAPFTLETSGWNGTDVSLEGKFQMEDLVYNPEQVPRYYQNAYLHLRPFYSTTRSFLGIHRLNGPLKCGQPQEVLVDYYIDPADASPDQEISFSYYLIGKGSLVMEGQKHLNSKKKGLKASFSLSLTFTSRLAPDPSLVIYAIFPSGGVVADKIQFSVEMCFDNQVSLGFSPSQQLPGAEVELQLQAAPGSLCALRAVDESVLLLRPDRELSNRSVYGMFPFWYGHYPYQVAEYDQCPVSGPWDFPQPLIDPMPQGHSSQRSIIWRPSFSEGTDLFSFFRDVGLKILSNAKIKKPVDCSHRSPEYSTAMGAGGGHPEAFESSTPLHQAEDSQVRQYFPETWLWDLFPIGNSGKEAVHVTVPDAITEWKAMSFCTSQSRGFGLSPTVGLTAFKPFFVDLTLPYSVVRGESFRLTATIFNYLKDCIRVQTDLAKSHEYQLESWADSQTSSCLCADDAKTHHWNITAVKLGHINFTISTKILDSNEPCGGQKGFVPQKGRSDTLIKPVLVKPEGVLVEKTHSSLLCPKGKVASESVSLELPVDIVPDSTKAYVTVLGDIMGTALQNLDGLVQMPSGCGEQNMVLFAPIIYVLQYLEKAGLLTEEIRSRAVGFLEIGYQKELMYKHSNGSYSAFGERDGNGNTWLTAFVTKCFGQAQKFIFIDPKNIQDALKWMAGNQLPSGCYANVGNLLHTAMKGGVDDEVSLTAYVTAALLEMGKDVDDPMVSQGLRCLKNSATSTTNLYTQALLAYIFSLAGEMDIRNILLKQLDQQAIISGESIYWSQKPTPSSNASPWSEPAAVDVELTAYALLAQLTKPSLTQKEIAKATSIVAWLAKQHNAYGGFSSTQDTVVALQALAKYATTAYMPSEEINLVVKSTENFQRTFNIQSVNRLVFQQDTLPNVPGMYTLEASGQGCVYVQTVLRYNILPPTNMKTFSLSVEIGKARCEQPTSPRSLTLTIHTSYVGSRSSSNMAIVEVKMLSGFSPMEGTNQLLLQQPLVKKVEFGTDTLNIYLDELIKNTQTYTFTISQSVLVTNLKPATIKVYDYYLPDEQATIQYSDPCE
modifications: internal thiol ester in which Gln-973 participates
B2: A2ML1 H1084N mutant (natural protein, human, UniProt A8K2U0-1 18-1454, looked up)
chain: B1 chain with H1067N
modifications: internal thiol ester in which Gln-973 participates
B3: Human α2-macroglobulin (A2M), wild type, purified from plasma (protein, UniProt P01023 24-1474)
chain: SVSGKPQYMVLVPSLLHTETTEKGCVLLSYLNETVTVSASLESVRGNRSLFTDLEAENDVLHCVAFAVPKSSSNEEVMFLTVQVKGPTQEFKKRTTVMVKNEDSLVFVQTDKSIYKPGQTVKFRVVSMDENFHPLNELIPLVYIQDPKGNRIAQWQSFQLEGGLKQFSFPLSSEPFQGSYKVVVQKKSGGRTEHPFTVEEFVLPKFEVQVTVPKIITILEEEMNVSVCGLYTYGKPVPGHVTVSICRKYSDASDCHGEDSQAFCEKFSGQLNSHGCFYQQVKTKVFQLKRKEYEMKLHTEAQIQEEGTVVELTGRQSSEITRTITKLSFVKVDSHFRQGIPFFGQVRLVDGKGVPIPNKVIFIRGNEANYYSNATTDEHGLVQFSINTTNVMGTSLTVRVNYKDRSPCYGYQWVSEEHEEAHHTAYLVFSPSKSFVHLEPMSHELPCGHTQTVQAHYILNGGTLLGLKKLSFYYLIMAKGGIVRTGTHGLLVKQEDMKGHFSISIPVKSDIAPVARLLIYAVLPTGDVIGDSAKYDVENCLANKVDLSFSPSQSLPASHAHLRVTAAPQSVCALRAVDQSVLLMKPDAELSASSVYNLLPEKDLTGFPGPLNDQDNEDCINRHNVYINGITYTPVSSTNEKDMYSFLEDMGLKAFTNSKIRKPKMCPQLQQYEMHGPEGLRVGFYESDVMGRGHARLVHVEEPHTETVRKYFPETWIWDLVVVNSAGVAEVGVTVPDTITEWKAGAFCLSEDAGLGISSTASLRAFQPFFVELTMPYSVIRGEAFTLKATVLNYLPKCIRVSVQLEASPAFLAVPVEKEQAPHCICANGRQTVSWAVTPKSLGNVNFTVSAEALESQELCGTEVPSVPEHGRKDTVIKPLLVEPEGLEKETTFNSLLCPSGGEVSEELSLKLPPNVVEESARASVSVLGDILGSAMQNTQNLLQMPYGCGEQNMVLFAPNIYVLDYLNETQQLTPEIKSKAIGYLNTGYQRQLNYKHYDGSYSTFGERYGRNQGNTWLTAFVLKTFAQARAYIFIDEAHITQALIWLSQRQKDNGCFRSSGSLLNNAIKGGVEDEVTLSAYITIALLEIPLTVTHPVVRNALFCLESAWKTAQEGDHGSHVYTKALLAYAFALAGNQDKRKEVLKSLNEEAVKKDNSVHWERPQKPKAPVGHFYEPQAPSAEVEMTSYVLLAYLTAQPAPTSEDLTSATNIVKWITKQQNAQGGFSSTQDTVVALHALSKYGAATFTRTGKAAQVTIQSSGTFSSKFQVDNNNRLLLQQVSLPELPGEYSMKVTGEGCVYLQTSLKYNILPEKEEFPFALGVQTLPQTCDEPKAHTSFQISLSVSYTGSRSASNMAIVDVKMVSGFIPLKPTVKMLERSNHVSRTEVSSNHVLIYLDKVSNQTLSLFFTVLQDVPVRDLKPAIVKVYDYYETDEFAIAEYNAPCSKDLGNA
modifications: internal thiol ester in which Gln-975 participates

How the values were obtained:
[1] = biological target: T1, Thermolysin from Geobacillus stearothermophilus, unmodified (Geobacillus stearothermophilus); assay: LC-MS/MS of crosslinked peptides from the pepsin-digested conjugation product band; the ∼150-kDa band (band 1) of WT A2ML1 with thermolysin or acetylated thermolysin digested in gel with pepsin at pH 3; HCD and EThcD MS2; Byonic search, assignments judged by hand; both purified
[2] = biological target: T2, Cathepsin G (CatG); assay: reducing SDS-PAGE of covalent conjugation products + Edman degradation and LC-MS/MS of bands; A2ML1 digested with HNE, CatG (up to 1:1 molar ratio protease:A2ML1, HBS with and without 50 mM BAPN, 15 min 37°C, stopped with 2 mM PMSF) or GluC (conditions not told); Fig. S2; both purified
[3] = biological target: Streptococcus aureus glutamyl endoprotease, GluC (Streptococcus aureus (so in the source)) (UniProt P0C1U8); assay: as above
[4] = biological target: T3, Cy5-labeled thermolysin (Geobacillus stearothermophilus); assay: reducing SDS-PAGE of covalent conjugation products with Cy5 fluorescence; A2ML1 digested with Cy5-labeled thermolysin or Cy5-labeled acetylated thermolysin at pH 5, 6 or 7 in 50 mM sodium acetate, 137 mM NaCl, 5 mM CaCl2; molar ratio protease:A2ML1 1:2 (methods) or 1:1; both …
[5] = biological target: T1, Thermolysin from Geobacillus stearothermophilus, unmodified (Geobacillus stearothermophilus); assay: reducing SDS-PAGE of covalent conjugation products + LC-MS/MS of in-gel digested bands; A2ML1 digested with thermolysin or acetylated thermolysin at up to 1:1 molar ratio protease:A2ML1, HBS (20 mM HEPES, 150 mM NaCl, pH 7.4) with 5 mM CaCl2, with and without 50 mM BAPN, 15 min 37°C, stopped with 10 mM EDTA; both purified
[6] = biological target: T1, Thermolysin from Geobacillus stearothermophilus, unmodified (Geobacillus stearothermophilus); assay: as above; remark: listed apart in the source
[7] = biological target: T3, Cy5-labeled thermolysin (Geobacillus stearothermophilus); assay: reducing SDS-PAGE of covalent conjugation products with Cy5 fluorescence; plasma-purified A2M or A2M N1088H cleaved with Cy5-labeled thermolysin or Cy5-labeled acetylated thermolysin; Coomassie and Cy5 fluorescence images; both purified

Binder	binding [1]	binding [2]	binding [3]	binding [4]	binding [5]	binding [6]	binding [7]
B1	binds	binds	no binding	binds	no binding (condition: with 50 mM BAPN)	binds	
B2		binds		binds	no binding (condition: with 50 mM BAPN)	binds	
B3							binds
